Patent US20040259791A1
No constants are given. Whether binding was seen depends on the method and setting. Some binding calls cover weakened binding; strength is not graded here.

Target: p53 (UniProt P04637)
Assay: yeast two-hybrid

binding: binds
B1: KChAP (as used in yeast two-hybrid experiments) (protein)
chain: MKIKELYRRRFPRKTLGPSDLSLLSLPPGTSPVGSPGPLAPIPPTLLAPGTLLGPKREVDMHPPLPQPVHPDVTMKPLPFYEVYGELIRPTTLASTSSQRFEEAHFTFALTPQQVQQILTSREVLPGAKCDYTIQVQLRFCLCETSCPQEDYFPPNLFVKVNGKLCPLPGYLPPTKNGAEPKRPSRPINITPLARLSATVPNTIVVNWSSEFGRNYSLSVYLVRQLTAGTLLQKLRAKGIRNPDHSRALIKEKLTADPDSEVATTSLRVSLMCPLGKMRLTVPCRALTCAHLQSFDAALYLQMNEKKPTWTCPVCDKKAPYESLIIDGLFMEILSSCSDCDEIQFMEDGSWCPMKPKKEASEVCPPPGYGLDGLQYSPVQGGDPSENKKKVEVIDLTIESSSDEEDLPPTKKHCSVTSAAIPALPGSKGVLTSGHQPSSVLRSPAMGTLGGDFLSSLPLHEYPPAFPLGADIQGLDLFSFLQTESQHYGPSVITSLDEQDALGHFFQYRGTPSHFLGPLAPTLGSSHCSATPAPPPGRVSSIVAPGGALREGHGGPLPSGPSLTGCRSDIISLD
